Experimental data as given in paper PMC6901238.

Chains of the proteins cited; added tags and fusions are not shown. Lines headed by an entry give the natural chain unless they say otherwise; changes in a name come on top.
UniProt A0A1Y0B6H8: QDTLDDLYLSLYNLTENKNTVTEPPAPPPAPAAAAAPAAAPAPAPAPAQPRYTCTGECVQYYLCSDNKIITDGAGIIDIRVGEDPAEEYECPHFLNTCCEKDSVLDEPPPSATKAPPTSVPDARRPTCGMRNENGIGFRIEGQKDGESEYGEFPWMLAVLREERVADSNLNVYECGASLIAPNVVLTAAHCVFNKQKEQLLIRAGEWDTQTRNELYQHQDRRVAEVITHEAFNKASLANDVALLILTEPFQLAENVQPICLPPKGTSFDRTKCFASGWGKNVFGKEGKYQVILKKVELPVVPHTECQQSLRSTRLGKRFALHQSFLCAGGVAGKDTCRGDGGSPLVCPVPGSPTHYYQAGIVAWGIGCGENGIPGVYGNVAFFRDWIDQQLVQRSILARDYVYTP

Target: T1, CLIPA28 (Anopheles gambiae (endogenous in hemolymph))
T1 sequence: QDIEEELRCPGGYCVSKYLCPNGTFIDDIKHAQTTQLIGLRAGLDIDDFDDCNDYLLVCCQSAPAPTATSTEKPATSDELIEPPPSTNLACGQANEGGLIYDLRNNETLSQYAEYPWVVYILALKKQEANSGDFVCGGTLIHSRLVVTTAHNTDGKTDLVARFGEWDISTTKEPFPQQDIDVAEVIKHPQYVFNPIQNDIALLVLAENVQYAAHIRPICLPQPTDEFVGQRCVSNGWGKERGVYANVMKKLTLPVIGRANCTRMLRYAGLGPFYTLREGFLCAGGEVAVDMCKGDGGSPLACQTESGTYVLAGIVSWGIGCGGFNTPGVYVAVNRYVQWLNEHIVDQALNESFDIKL
Assay: affinity purification with mass spectrometry; endogenous CLIPA28 precipitated with 4 ug purified CLIPA28 antibody cross-linked to beads (Pierce crosslink Magnetic IP/co-IP kit); cell-free hemolymph of approximately 900 female mosquitoes 48 hrs after spraying with B. bassiana conidia; overnight at 4 C; eluted proteins identified by mass spectrometry

CLIPB13 was tested. Which binding did it give?
The binding was “binds”.

For CLIPD1, which binding is on record?
Its binding is “binds”.

Which binding does the source give for CLIPB17 here?
The binding was “no binding”.

With CLIPA14 (from UniProt A0A1Y0B6H8) as the molecule, how does the binding read?
The binding was “binds”.

How did the binding turn out when CLIPB5 was run?
The binding was “binds”.

CLIPA2 was tested. Which binding did it give?
Its binding is “binds”.

B1: CLIPB4 (protein, UniProt Q7PEV7 25-360)
chain: LELGQDCVNPVGEAGKCVLFRECQPLVDIYNKPVNTPDDTQFLTESRCGLYERKTLVCCAGVRSKGKTSLPESPNCGVQLTDRVIGGQPTKIDEFPWTALIEYEKPNGRFGFHCGGSVINERYILTAAHCITSIPRGWKVHRVRLGEWDLSSTTDQEDDFYADAPIDLDIEKIIVHPGYNLQDKSHHNDIALIRFNREINYSSTISAICLPLSNSLRNRKHAGLSSYAAGWGKTETASASQKKLKVELTVVDVKDCSPAYQRNGISLDSTQMCAGGIRGKDTCSGDSGGPLMRQMSGSWYLIGVVSFGPQKCGAPGVPGVYTNVAEYVDWIKDNIY
B1 was tested. Which binding did it give?
Its binding is “binds”.

B2: CLIPB8 (protein, UniProt Q8MZM7 25-405)
chain: APMDTDDRPVWDSIRLCDIPNEPNPGQCMLPAECVAYGKINDVSSLSSIERFSFIKQIQCNGSDTVPYVCCPRDSDAYREPYVNETMVPKNRVASRIAFDADSCGIQSYVAKIRGGQLAEIDEFPWMAMLLYERDNNALTQGCGGALISRTYVITAAHCVTGKNFQQTKGRLKFVRLREYNIHTNPDCVYENDLKDCSDDMIDLVPQAVIPHPEYDSESSNQQHDIALIRIEQTPPFTDFLRSICLPEQNFESSATPGKKLSVSGWGRTDIFKDNLGPDVLSPIKLKLSLPYVEREKCSKTFRPWSFALGPGQMCAGGERAKDTCAGDSGSPLMSYDMKRAIWYITGIVSLGVRGCGVEGLPGVYTNVHHYLPWIKMYTGA
Which binding does the source give for B2 here?
The binding was “binds”.

B3: complement-like protein TEP1 (protein, UniProt Q9GYW4 22-1340)
chain: LLVVGPKFIRANQEYTLVISNFNSQLSKVDLLLKLEGETDNGLSVLNVTKMVDVRRNMNRMINFNMPEELTAGNYKITIDGQRGFSFHKEAELVYLSKSISGLIQVDKPVFKPGDTVNFRVILLDTELKPPARVKSVYVTIRDPQRNVIRKWSTAKLYAGVFESDLQIVPTPMLGVWNISVEVEGEELVSKTFEVKEYVLSTFDVQVMPSVIPLEEHQAVNLTIEANYHFGKPVQGVAKVELYLDDDKLNQKKELTVYGKGQVELRFDNFAMDADQQDVRVKVSFIEQYTNRTVVKQSQITVYRYAYRVELIKESPQFRPGLPFKCALQFTHHDGTPAKGITGKVEVSDVGFETTTTSDNDGLIKLELQPSEGTEQLGINFNAVDGFFFYEDVNKVETVTDAYIKLELKSPIKRNKLMRFMVTCTERMTFFVYYVMSKGNIIDAGFMRPNKQTKYLLQLNATEKMIPKAKILIATVAGRTVVYDYADLDFQELRNNFDLSIDEQEIKPGRQIELSMSGRPGAYVGLAAYDKALLLFNKNHDLFWEDIGQVFDGFHAINENEFDIFHSLGLFARTLDDILFDSANEKTGRNALQSGKPIGKLVSYRTNFQESWLWKNVSIGRSGSRKLIEVVPDTTTSWYLTGFSIDPVYGLGIIKKPIQFTTVQPFYIVENLPYSIKRGEAVVLQFTLFNNLGAEYIADVTLYNVANQTEFVGRPDTDLSYTKSVSVPPKVGVPISFLIKARKLGEMAVRVKASIMLGHETDALEKVIRVMPESLAQPKMDTSFFCFDDYKNQTFPFNLDINKKADNGSKKIEFRLNPNLLTMVIKNLDNLLAVPTGCGEQNMVKFVPNILVLDYLYATGSKEQHLIDKATNLLRQGYQNQMRYRQTDGSFGVWEKSGSSVFLTAFVATSMQTASKYMNDIDAAMVEKALDWLASKQHSSGRFDETGKVWHKDMQGGLRNGVALTSYVLTALLENDIAKVKHAVVIQNGMNYLSNQLAFINNPYDLSIATYAMMLNGHTMKKEALDKLIDMSISDNNKKERYWGTTNQIETTAYALLSFVMAEKYLDGIPVMNWLVNQRYVTGSFPRTQDTFVGLKALTKLAEKISPSRNDYTVQLKYKKNTKYFNINSEQIDVQNFLEIPEDTKKLEINVGGIGFGLLEVIYQFDLNLVNFEHRFKLDLEKQNTGSDYELRLRVCANYIPELTDSQSNMALIEVTLPSGYVVDRNPISEQTTVNPIQNMEIRYGGTSVVLYYYKMGTERNCFTVTAYRRFKVALKRPAYVVVYDYYNTNLNAIKVYEVDKQNVCEICEEEDCPAECKK
Which binding does the source give for B3 here?
The binding was “binds”.

B4: serine protease inhibitor 2 (SRPN2) (protein, UniProt Q7QIJ8 22-409)
chain: QQDVHGPFQGQRQNEFDLMFVKEIFKNHNSNVVLSPFSVKILLTLIYEASDTSFGNAVSNTKRELSSVIQNDNIDHTRSYYKQLLESAQQDNKDYDLNIATNFFVDDFIEVINKYQQIANTHYHAMLEKVSYSNPTQTAATINNWVSEHTNGRLREIVTPDSLEGAVITLVNVIYFKGLWTYPFPEVANNVKPFYGTRGKPTNAQYMEQNGQFYYDNSADLGAQILRLPYRGNKLAMYFILPNPDNTVNQVLDRINSASLHQALWYMEENEVNVTLPKFKFDFSEQLNEPLQQVGIREIFSQNASLPLLARGRGARDEVRVSRIFQKAGITINELGSEAYAATEIQLVNKFGGDGVQIFNANRPFIFFIEDETLGTMLFAGKIENPVF
With B4 as the molecule, how does the binding read?
The binding was “binds”.

B5: SPCLIP1 (protein, UniProt A0A1S4HE51 40-416)
chain: NFPVGKFRRCNNNKGICVSREQCLNGQINTVGHTQIEPRLLNDDDIDECDVYGMQCCNLPSTNVPADSDEEEQEEEEKEKKGGTVTTTTTEEPDDPDWSRQCGQRTDVTERADQDGETNRFEFPWSVALFSKAQFFGKVRKEFLCGGTLIDDYLVLTAARCVNQKDRNTLVVQLGRWNLDAGKESRMQEIAVEELIIHRGYVLSSHLHNVALLVLANGAQLGRAANRVCLPDHSVQFGPDTLCYVVGWSNSPSPNTSNRQLKLRSMVAPVQECTATIRRSTGAWDFRLLSENICTTYLDDTVPCERAPGSGFVCESPTLPGQYFLVGIASYAVRQCHKYRAHDVFVHVPDYIEWVDGHVVNQSRQTSFYRPDPISFD
With B5 as the molecule, how does the binding read?
The binding was “no binding”.

B6: CLIPA8 (protein, UniProt A0A1S4H5S2 26-363)
chain: QNDGSDELQECPGGFCSPKYLCPNGTYNEANAQNQEIIMLRFGEEDVCQDYMQVCCSNATSMRYELVTNNEPVEYGCGISNPGGLIYQVEGNRTYAQYGEFPWVVAILEAFYSSNEQQFTYVGGGTLIHPRFVVTAAHIFNKTENLVASFGEWDMNRDENVYPKQNIDIDRTIIVHPEYNSVGLLNDIALAQLKQNVVYDKHIRPICLPNPTDRFDDQLCISTGWGIEALTSAYANVLKRVDLPVIARASCKKLFAETRLGPFFRLHKSVLCAGGEEGADMCDGDGGSGLACPNESGAYVLAGIVSWGLSCHQQNVPGAYVNVARFVTWINATIEGIL
For B6, which binding is on record?
Its binding is “no binding”.

B7: CLIPB9 (protein, UniProt F5HKX0 27-401)
chain: QQQQCTTPTRLRGRCISIYECDSILDYFKQRILTWEEREFLRKSQCTGATSGRQPFVCCPGNGSKPVVAPATTVPAGTASTTPAGPAATAPSGDAALADQLVGGLLPNPKKNECGVSIGMRIYGGQNADIDEFPWLALLQYENRKGERKYSCGGSLINRRYVLTAAHCVIGEVERKEGKLVSVRLGEYNTKTEIDCVTEEQEEICADPPIDAGIESVIVHPGYQDMAHADDIALLRLAQSIEYTSFVQPVCLPLTDFRASKTGEVNFVTGFGRTLQESRSAVKQKLGIKVYDHARCQEKYATKNSSITTNQLCAGGEYAKDSCHGDSGGPLMKLQKVWYLEGIVSYGNRCGLEDWPGVYTHVPAYMAWVRSNIKE
With B7 as the molecule, how does the binding read?
The binding was “no binding”.

B8: CLIPB14 (protein, UniProt Q9NAS8 25-375)
chain: QEHKPCTTPNGTAGRCVRVRECGYVLDLLRKDLFAHSDTVHLEGLQCGTRPDGGALVCCPAFVNEPNCGPSVFGVRIIGGNDTELGEFPWMALLRFQARNRKIHGNCGASLVSKRFVLSAAHCFTAAKSKGWKIHSVRVAEWNFMNHRGSKDCKQVKGYDVPICRKDYDVARFVQHPEYRVNAGVHVNDIVLIELAADVEYNVFVAPICLPVSNDTAQLPWGSSDDPEIEYTAAGWGSTESGKESTGMSYQLKQINLRAFNKERCKKLFQVPSGVGVGLGHICAGGIRDEDTCHGDSGGPLMEAVGGVWYLAGITSFGWPRCGRDGVPGVYTNISHYMGWLEREMFRGILA
Which binding does the source give for B8 here?
Its binding is “no binding”.

These are yes or no findings as the source states them, for the method shown. Binding seen in cells or lysates may run through a third protein. These calls come from enrichment with a bait or labelling near it, and not all partners need be listed. A no says only that the protein was not detected with the bait.
